These are yes or no findings as the source states them, for the method shown. In cells and extracts the contact can be indirect. Some entries that bind do so weakly or less than the wild type.
Target: CHRNA3, endogenous in mouse adrenal gland chromaffin cells (mouse (endogenous in AGCCs)) (UniProt Q8R4G9)
Test: FRET or BRET; acceptor photobleaching FRET on fixed primary mouse AGCCs stained with primary and fluorophore-conjugated secondary antibodies; rhodamine (CHRNA3) donor, Alexa Fluor-488 (EPHB6) acceptor; confocal microscope

Chains of the proteins cited; added tags and fusions are not shown. Residues count along the entry.
UniProt Q8R4G9, residues 26-499: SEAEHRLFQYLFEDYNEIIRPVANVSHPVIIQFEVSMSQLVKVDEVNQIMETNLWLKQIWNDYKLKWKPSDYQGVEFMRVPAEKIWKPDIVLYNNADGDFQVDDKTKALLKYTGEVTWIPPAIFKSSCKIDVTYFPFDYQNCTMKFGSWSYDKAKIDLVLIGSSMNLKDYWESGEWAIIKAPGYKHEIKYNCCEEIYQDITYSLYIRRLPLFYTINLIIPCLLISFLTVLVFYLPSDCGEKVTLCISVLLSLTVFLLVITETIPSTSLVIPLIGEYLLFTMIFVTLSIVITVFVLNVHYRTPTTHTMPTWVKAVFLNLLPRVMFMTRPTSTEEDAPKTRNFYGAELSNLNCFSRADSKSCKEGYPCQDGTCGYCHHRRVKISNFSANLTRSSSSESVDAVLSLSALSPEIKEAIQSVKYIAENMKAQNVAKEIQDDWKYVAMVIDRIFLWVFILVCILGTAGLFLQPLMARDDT

binding: binds
B1: EPHB6, endogenous in mouse adrenal gland chromaffin cells (receptor, UniProt O08644 33-1014)
chain: LEEVLLDTTGETSEIGWLTYPPGGWDEVSVLDDQRRLTRTFEACHVAGLPPGSGQDNWLQTHFVERRGAQRAHIRLHFSVRACSSLGVSGGTCRETFTLYYRQADEPDGPDSIAAWHLKRWTKVDTIAADESFPASSSSSSWAVGPHRTGQRVGLQLNVKERSFGPLTQRGFYVAFQDTGACLALVAVKLFSYTCPSVLRAFASFPETQASGAGGASLVAAVGTCVAHAEPEEDGVGGQAGGSPPRLHCNGEGRWMVAVGGCRCQPGHQPARGDKLCQACPEGSYKALAGNVPCSPCPARSHSPDPAAPVCPCLQGFYRASSDPPEAPCTGPPSAPRELWFEVQGSALMLHWRLPQELGGRGDLLFNVVCKECGGHGEPSSGGMCRRCRDEVHFDPRQRGLTESRVLVGGLRAHVPYILEVQAVNGVSELSPDPPQAAAINVSTSHEVPSAVPVMHQVSRAANSITVSWPQPEQTNGNILDYQLRYYDQAEDESHSFTMTSETNTATVTRLSPGHIYGFQVRARTAAGHGPYGGKVYFQTLPQGELSSQLPEKLSLVIGSILGALAFLLLAAITVLAVIFQRKRRGTGYTEQLQQYSSPGLGVKYYIDPSTYDDPCQAIRELAREVDPTYIKIEEVIGAGSFGEVRRGRLQPRGRREQAVAIQALWAGGAESLKMTFLGRAALLGQFQHPNILRLEGVVTKSRPVMVLTELMELGPLDSFLRQREGQFSSLQLVAMQRGVAAAMQYLSSFAFVHRALSARSVLVNSHLVCKVARLGHSPQGSSSLLRWAAPEVITHGKYTTSSDVWSFGILMWEVMSYGERPYWDMNEQEVLNAIEQEFRLPPPPGCPPGLHLLMLDTWQKDRARRPHFDQLVAAFDKMIRKPDTLQAEGGSGDRPSQALLNPVALDFPCLDSPQAWLSAIGLECYQDNFSKFGLSTFSDVAQLSLEDLPGLGITLAGHQKKLLHNIQLLQQHLRQPGSVEV

Reference: publication PMC7728919
